Some of the results follow. Shown are side measurements of this screen, not its main read-out; they come without a call. Compounds called inactive in the main read-out are mostly missing here. Words in brackets tell the shape of the fitted curve; partial curves, single points and poor fits give uncertain potencies.
Experiment: qHTS Assay for Lipid Storage Modulators in Drosophila S3 Cells;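 on cell number change: cells counted by Cell Tracker Red CMTPX staining in the red channel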
Conditions: BODIPY lipid droplet fluorescence, 18-24 h; for cell number change: measured here: cell count max response, cells fed with added oleic acid
Summary of the method: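 Drosophila S3 cells loaded with oleic acid (400 uM, as added) and compounds at several concentrations; lipid droplets imaged by 488-nm laser-scanning cytometry, 500–530 nm intensity and object ratio to cell channel. Percent activity normalized to 20 uM Triacsin C.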

[1] = measured here: lipid fluorescence (Fed channel) AC50, cells fed with added oleic acid
[2] = measured here: cell number channel AC50, cells fed with added oleic acid

| Structure (SMILES) | cell number change [%] | AC50 [1] | AC50 [2] |
| --- | --- | --- | --- |
| Cc1ccc(C(OCC(O)CNC(C)c2ccccc2)c2ccccc2)cc1 (stereo not drawn) | -46.5 | – | – |
| Cc1ccc(/C=N/NC(=O)c2nnn(-c3nonc3N)c2CNc2ccccc2)cc1 | -15.6 | 0.58 µM [falling, single point] | – |
| Cc1nc(NS(=O)(=O)c2cccs2)c2c3c(sc2n1)CCC3 | -17.2 | 0.00517 µM [rising, full curve, poor fit] | 2.06 µM [falling, partial curve] |
| Cn1c(-c2cccc(Br)c2)n[nH]c1=O | -19.1 | 20.6 µM [falling, single point] | – |
| O=c1oc2ccccc2nc1/C=C(\O)c1ccc(Br)cc1 | 8.57 | 1.84 µM [rising, single point] | – |
| C[n+]1c2n(c3ccccc31)N=C(c1cc(C(C)(C)C)c(O)c(C(C)(C)C)c1)CS2 | -55.9 | 25.9 µM [falling, partial curve] | 3.26 µM [falling, full curve] |
| OCC[C@@H]1C[C@H](O)[C@@H](O)[C@@]2(CCc3ccccc3O2)O1 | 13.5 | 0.0366 µM [falling, full curve, poor fit] | – |
| N#Cc1c[nH]n2c(=O)c3c(nc12)CCC3 | 2.26 | 32.6 µM [falling, single point] | – |
| O=C1CCC([N+](=O)[O-])C(c2cccc3ccccc23)N1 (stereo not drawn) | -31 | 0.0058 µM [falling, full curve, poor fit] | – |
| CCOCCOC(=O)NCCCCCCNC(=O)OCCOCC | – | – | 2.31 µM [falling, partial curve] |
| COc1ccc(N(CC(=O)NCc2ccccc2)C(=O)Cn2nnc(-c3ccccc3F)n2)cc1OC | 14.6 | 5.8 µM [rising, partial curve, poor fit] | – |
| O=C(O)CCCCCNC(=O)c1cccc(Br)c1 | 1.33 | – | – |
| CCOC(=O)c1cc(-c2csc(COc3ccccc3)n2)on1 | 2.38 | 0.0058 µM [falling, full curve, poor fit] | – |
| COc1ccc2nc(SCC(=O)NCc3ccc(S(N)(=O)=O)cc3)[nH]c2c1 | 15.3 | – | – |
| COc1ccc(Nc2c3ccccc3nc3ccccc23)cc1 | -39 | 29.1 µM [falling, single point] | 20.6 µM [falling, single point] |
| CCOC(=O)c1cccc(NC(=O)/C=C/c2ccc3c(c2)OCO3)c1 | 7.62 | 6.51 µM [falling, single point] | 5.17 µM [falling, single point] |
| O=C(C1CCCO1)N1CCN(Cc2c(O)ccc3ccccc23)CC1 (stereo not drawn) | -20.2 | – | 0.731 µM [falling, full curve, poor fit] |
| Cc1cccc(NC(=S)N2CCN(c3ccccc3F)CC2)c1C | -4.2 | 5.8 µM [rising, full curve] | – |
| CCOc1[nH]n(-c2ccccc2)c(=O)c1C=NCc1cccnc1 | 38 | 25.9 µM [rising, single point] | 0.00461 µM [rising, full curve, poor fit] |
| Cc1[nH]nc(SCC(=O)N2CCC(C)CC2)c1[N+](=O)[O-] | 78.1 | – | 29.1 µM [rising, single point] |
| N#C/C(=N/Nc1ccc(OC(F)(F)F)cc1)C(N)=S | -65.5 | 23.1 µM [falling, partial curve] | 23.1 µM [falling, partial curve] |
| Cc1ccc2nsnc2c1S(=O)(=O)NCCc1c(C)[nH]c2ccc(F)cc12 | – | 2.59 µM [rising, partial curve] | – |
| CC(C)(C)c1ccc(/C=C2\Oc3cc(OC(=O)N4CCOCC4)ccc3C2=O)cc1 | -50 | 18.4 µM [falling, partial curve, poor fit] | 20.6 µM [falling, single point] |
| COc1ccc(C(=O)NCc2cccnc2)cc1C(=O)NCc1cccnc1 | 46 | 3.26 µM [rising, partial curve] | 2.91 µM [rising, full curve] |
| Cc1ccc(S(=O)(=O)NCCNC(=O)c2ccccc2)cc1 | 39 | – | 25.9 µM [rising, single point] |
| O=C(C1CCC(=O)N(C2CCCC2)C1)N1CCN(c2ccc(Cl)cc2)CC1 (stereo not drawn) | -6.12 | 4.61 µM [falling, single point] | – |
| COc1ccc(C)cc1NC(=O)CCC(=O)Nc1ccc2nc(N3CCN(C)CC3)cc(C)c2c1 | -40.8 | 29.1 µM [falling, single point] | 14.6 µM [falling, partial curve, poor fit] |

Rewritten as tab-separated lines: entries from further up.
Structure (SMILES)	cell number change [%]	AC50 [1]	AC50 [2]
C[n+]1c2n(c3ccccc31)N=C(c1cc(C(C)(C)C)c(O)c(C(C)(C)C)c1)CS2	-55.9	25.9 µM [falling, partial curve]	3.26 µM [falling, full curve]
OCC[C@@H]1C[C@H](O)[C@@H](O)[C@@]2(CCc3ccccc3O2)O1	13.5	0.0366 µM [falling, full curve, poor fit]	–

— PubChem BioAssay AID2685 (National Center for Advancing Translational Sciences (NCATS), 2010)
